# The supplement of paper PMC10735217
# Counter-ions that a name gives are not always drawn. The list shows a part of the results. Single values are uncertain here, since repeats match poorly.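 The human kidney-derived cells carry a stably integrated construct of eight TEAD-binding elements driving luciferase, read by luminescence in a drug-repurposing library screen. A compound counts as a hit when its signal is more than five robust Z scores above the plate mean.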
# Test system: HEK293A TEAD-LUC reporter
# Experiment: TEAD-luciferase reporter activity (YAP activation), robust Z score vs plate; higher = stronger YAP/TEAD activation
# Conditions: 24 h
SMILES,TEAD-luciferase reporter activity (compound concentration: 200 nM),TEAD-luciferase reporter activity (compound concentration: 2 uM),TEAD-luciferase reporter activity (compound concentration: 10 uM)
COC(=O)c1ccc(NC(=O)CSc2nnc(Br)n2-c2ccc(C3CC3)c3ccccc23)c(Cl)c1,inactive: 0.848,inactive: -0.991,inactive: -1.26
NCCc1ccc(O)c(O)c1 [Intropin],inactive: 4.79,–,inactive: -0.569
"NCCc1ccc(O)c(O)c1 [dopamine, Kowa]",–,inactive: -0.0909,–
NC(=O)N1c2ccccc2CC(O)c2ccccc21 (stereo not drawn) [licarbazepine],inactive: -1.95,inactive: 0.625,inactive: 0.508
CC(=O)N1Cc2ccccc2CC2(CCCCN2C)C1 (stereo not drawn),inactive: -0.682,–,inactive: -0.494
Cc1nc2sccn2c(=O)c1CCN1CCC(=C(c2ccc(F)cc2)c2ccc(F)cc2)CC1 [Ritanserin],inactive: -0.372,inactive: -1.02,inactive: -3.18
C#CC(C)(CC)OC(=O)c1ccccc1C(=O)O (stereo not drawn) [Phthalofyne],inactive: -0.0522,–,inactive: 1.17
CC/C(=C(\c1ccc(I)cc1)c1ccc(OCCN2CCCC2)cc1)c1ccccc1 [Idoxifene],inactive: 3.24,inactive: -0.492,inactive: -1.36
CC=CCC(C)c1cc(=O)c2c(C)cc3c(c2o1)C(=O)c1c(O)c(C2CC(C)(N(C)C)C(O)C(C)O2)cc(C2CC(N(C)C)C(O)C(C)O2)c1C3=O (stereo not drawn),inactive: -0.322,inactive: -1.11,inactive: -0.435
CN(C)CCOC(c1cccs1)c1ccnn1C (stereo not drawn) [Dilopetine],inactive: -0.939,inactive: -1.1,inactive: 1.41
NNc1cc2c(nn1)CCN(C(=O)c1ccccc1)C2 [Endralazine],inactive: -0.0194,inactive: -0.712,inactive: -1.42
CCOCC(O)COc1ccc(NC(=O)CC[S+](C)C)cc1 (stereo not drawn) [suplatast tosilate],inactive: -2.67,inactive: 0.186,inactive: -1.08
CO[C@@H]1[C@H](OC(=O)/C=C/c2ccc(OCCN(C)C)cc2)CC[C@]2(CO2)[C@H]1[C@]1(C)OC1CC=C(C)C (stereo partly drawn) [beloranib hemioxalate],inactive: -0.852,inactive: -1.03,inactive: -1.03
Brc1c(NC2=NCCN2)ccc2nccnc12,inactive: -0.87,inactive: 0.422,inactive: 1.21
Brc1c(NC2=NCCN2)ccc2nccnc12 [brimonidine],–,inactive: -1.96,–
Brc1c(NC2=NCCN2)ccc2nccnc12 [brimonidine tartrate],–,inactive: -0.519,–
CCN1CCN(Cc2ccc(-c3cc4c(N[C@H](C)c5ccccc5)ncnc4[nH]3)cc2)CC1,inactive: 0.215,inactive: -1.8,inactive: -2.28
CNC(=O)c1cccc2c(Nc3ccc(NS(C)(=O)=O)cc3OC)c3cccc(C)c3nc12,inactive: -2.03,inactive: -0.162,inactive: -0.133
O=C(Cn1ccnc1[N+](=O)[O-])NCc1ccccc1 [benznidazole],inactive: -1.87,inactive: -1.02,inactive: -0.37
COc1ccc(CCNC(=O)c2ccc([N+](=O)[O-])cc2)cc1OC,inactive: 0.753,inactive: -0.799,inactive: -0.656

# Some of the entries so far, as tab-separated lines:
SMILES	TEAD-luciferase reporter activity (compound concentration: 200 nM)	TEAD-luciferase reporter activity (compound concentration: 2 uM)	TEAD-luciferase reporter activity (compound concentration: 10 uM)
CC=CCC(C)c1cc(=O)c2c(C)cc3c(c2o1)C(=O)c1c(O)c(C2CC(C)(N(C)C)C(O)C(C)O2)cc(C2CC(N(C)C)C(O)C(C)O2)c1C3=O (stereo not drawn)	inactive: -0.322	inactive: -1.11	inactive: -0.435
CN(C)CCOC(c1cccs1)c1ccnn1C (stereo not drawn) [Dilopetine]	inactive: -0.939	inactive: -1.1	inactive: 1.41

# (next part)

SMILES,TEAD-luciferase reporter activity (compound concentration: 200 nM),TEAD-luciferase reporter activity (compound concentration: 2 uM),TEAD-luciferase reporter activity (compound concentration: 10 uM)
O=C1[O][Pt-2]2([NH2+]CC(CO)(CO)C[NH2+]2)[O]C(=O)C12CCC2 [Zeniplatin],inactive: 0.457,inactive: -0.119,inactive: 0.598
CCCCNC(=O)NS(=O)(=O)c1ccc(C)cc1 [Tolbutamide],–,inactive: 0.81,–
CCCCNC(=O)NS(=O)(=O)c1ccc(C)cc1,inactive: -1.11,–,inactive: 0.0809
Cn1cc(NC(=O)c2cc(NC(=O)c3cc(NC=O)cn3C)cn2C)cc1C(=O)NCCC(=N)N,inactive: 0.49,inactive: 0.509,inactive: -0.503
Nc1nc2c(Cc3ccsc3)c(N)[nH]c2c(=O)[nH]1,inactive: -0.391,inactive: -0.542,inactive: 3.88
CCCCCCCCCCOc1ccc(C(=O)Nc2cc(C(=O)NCCCC)ccc2SC)cc1,inactive: -1.19,inactive: -0.813,inactive: 0.989
CS(=O)(=O)Nc1ccc(C(O)CNCC2CCc3ccccc3C2=O)cc1 (stereo not drawn),inactive: -1.53,inactive: -0.029,inactive: -0.669
CC#CCOc1cc(/C=C/C(=O)Nc2ccccc2C(=O)O)ccc1OC,inactive: -1.65,inactive: -2.11,inactive: -1.04
O=C1NC(=O)C2(N1)c1cc(F)ccc1-c1ccc(F)cc12,inactive: -1.26,inactive: -0.972,inactive: 0.193
CCOC(=O)[C@H](C)NP(=O)(COCCn1cnc2c(NC3CC3)nc(N)nc21)N[C@@H](C)C(=O)OCC,inactive: 2.42,inactive: -1.22,inactive: -0.549
C[C@@H](c1ccc2c(c1)[nH]c1ccccc12)n1ccnc1,inactive: -1.02,inactive: -0.648,inactive: -1.06
CCC(C)(C)NCC(O)COc1ccccc1C#N (stereo not drawn) [Penirolol],inactive: 0.472,inactive: -0.466,inactive: 4.59
Clc1ccc2c(c1)C(c1ccccc1Cl)=NCc1cncnc1-2,inactive: -2.33,inactive: -0.431,inactive: 1.32
CC(COc1ccccc1)NN (stereo not drawn),inactive: -0.46,inactive: -2.11,inactive: -0.288
O=C(C1CCCC1)N1CCCN(c2nc3ncccc3o2)CC1,inactive: -0.964,–,inactive: 4.21
CCCCCCCCCCCCCC[N+](C)(C)CCC[Si](OC)(OC)OC,inactive: -1.32,inactive: 0.222,inactive: 3.44
CCCCCCCC/C=C\CCCCCCCC(=O)OC(CO)CO [2-Oleoylglycerol],inactive: -1.72,inactive: 1.14,inactive: 1.13
OB1OCc2cc(Cl)ccc21,inactive: -0.543,inactive: -0.673,inactive: -1.04
CC1=C(Nc2ccc(C3=NNC(=O)CC3C)cc2)CCC1=O (stereo not drawn),inactive: -0.728,inactive: -0.375,inactive: -1.51
C[C@@H]1CCN(C(=O)CC#N)C[C@@H]1N(C)c1ncnc2[nH]ccc12 [tofacitinib (controlled release)],inactive: -0.182,inactive: -1.66,inactive: 0.825

SMILES,TEAD-luciferase reporter activity (compound concentration: 200 nM),TEAD-luciferase reporter activity (compound concentration: 2 uM),TEAD-luciferase reporter activity (compound concentration: 10 uM)
Cc1c(Br)c(=O)n(C2CCCC2)c2nc(Nc3ccc(N4CCN(C)CC4)cc3)ncc12,inactive: -0.515,inactive: -0.871,inactive: 0.741
CCN1CCC(c2cc(C)c3nc(-c4cc5c(C)nc(C)cn5n4)cc(=O)n3c2)CC1,inactive: 0.554,–,inactive: -2.06
C[C@]1(Cn2ccnn2)[C@H](C(=O)O)N2C(=O)C[C@H]2S1(=O)=O [Tazobactam],inactive: 1.09,inactive: -1.08,inactive: -0.848
CCN(CC)Cc1ccc(Nc2ccnc3cc(Cl)ccc23)cc1O,inactive: -0.0856,inactive: 0.517,inactive: -0.918
C[C@@H](/N=C(\NC#N)Nc1ccc(C#N)cc1)C(C)(C)C,inactive: -0.737,inactive: 3.55,inactive: -1.31
C[C@@H](Sc1nc(N)cc(Cl)n1)c1cc2ccoc2cn1,inactive: 0.882,inactive: -1.78,inactive: 4.33
C[C@@H](N1CCN(c2ccc(-n3cnnn3)cc2)C1=O)[C@](O)(Cn1cncn1)c1ccc(F)cc1F,inactive: -1.6,inactive: -0.237,inactive: 0.288
CC(=O)Oc1cccc(C)c1,inactive: -0.128,inactive: -1.48,inactive: 2.94
CC(C)c1ccc(C(=O)N(C)CCN2CCN(c3cccc4ccoc34)CC2)cc1 [befiperide],inactive: -1.24,inactive: -0.269,inactive: 2.48
C[C@@H]1CC2C3CCC4=CC(=O)C=CC4(C)C3=CCC2(C)[C@@]1(O)C(=O)CO (stereo partly drawn),inactive: -0.131,inactive: 1.07,inactive: 0.416
Cn1cnc2c1c(=O)n(CC(=O)O)c(=O)n2C,inactive: 1.38,inactive: -0.844,inactive: -0.411
CC(CN1CCCC1)C(=O)c1ccc(C(F)(F)F)cc1 (stereo not drawn),inactive: -1.09,inactive: -0.299,inactive: -0.37
Cc1ccccc1N1C(=O)c2cc(S(N)(=O)=O)c(Cl)cc2NC1C (stereo not drawn) [metolazone],inactive: -0.449,inactive: 0.00937,inactive: 1.32
Nc1ccc(S(=O)(=O)NC(=O)c2ccccc2)cc1,inactive: -0.466,inactive: -0.423,inactive: 1.45
Cc1ccc(Oc2ccccc2-c2csc(N=C3NCCCN3)n2)c(C)c1 [Abafungin],inactive: 0.49,inactive: 1.01,inactive: 0.443
NS(=O)(=O)Cc1noc2ccccc12 [zonisamide],–,inactive: 0.968,–
NS(=O)(=O)Cc1noc2ccccc12 [Zonisamide],inactive: -0.076,–,inactive: -0.945
"Nc1ccc(C(=O)O)c(O)c1 [4-aminosalicylic acid, Block]",inactive: 3.94,inactive: -2.17,inactive: -0.0803
O=C(C(=O)N1CCn2nc(-c3ccc(F)cc3)c(-c3ccncc3)c2N1)c1ccccc1,inactive: -1.77,inactive: -1.46,inactive: 1.19
C[C@H](N)C(=O)N[C@@H](CCC(N)=O)C(=O)N1CCC[C@H]1C(=O)N[C@@H](Cc1ccc(O)cc1)C(=O)N1CCC[C@H]1C(=O)N[C@@H](CCC(N)=O)C(=O)NCC(=O)N[C@@H](CC(N)=O)C(=O)N[C@@H](Cc1c[nH]cn1)C(=O)N[C@@H](CCC(=O)O)C(=O)N[C@@H](C)C(=O)N[C@@H](CO)C(=O)N[C@@H](Cc1ccc(O)cc1)C(=O)NCC(=O)O,inactive: -0.83,inactive: 0.779,inactive: -0.108
